Some of these results come from one statement about several compounds together.
System: hepatocytes
Assay: Hepatocytes between two type I collagen gel layers in HBM: ductular/acinar structures and proliferation
Assay type: cell-based, rat
Conditions: at the highest peak; data not shown
Procedure: Collagen gels were prepared as described by Michalopoulos, G. K., et al., Exp. Cell. Res. 94:70 (1975), the disclosure of which is incorporated herein by reference. Dry coating of plates with collagen and Matrigel was also performed as specified by the manufacturer. Matrigel gels were made by adding 50 μl of Matrigel solution into 0.5 ml of medium directly on the top of attached cells.
Hepatocytes maintained between two collagen gel layers retain their morphology and differentiation for prolonged time periods as described by Michalopoulos, G. K., et al., J. Cell. Physiol. 156:443 (1993), the disclosure of which is incorporated herein by reference. Hepatocytes maintained in collagen gel sandwiches in cultures with convential media containing HGF/SF undergo intense proliferation, form prominent projections, and eventually become organized in structures reminiscent of the hepatic plates. The behavior of hepatocytes maintained between two layers of collagen gel as previously described was examined, but in the presence of HBM supplemented with either HGF/SF or EGF as described above. […] These became prominent and encompassed most of the cells present in the cultures. Starting from approximately day 10 and by day 15 most of the cells in the culture were arranged in such ductular structures. Histologic sections are shown in FIG. 7B (light microscopy) and FIGS. 7C and 7D (electron microscopy). […]

HGF/SF: Hepatocyte growth factor, also known as scatter factor
proliferation in collagen gel sandwiches relative to cultures on plastic coated with dry collagen: < 25%

Source: patent US7022520B2, “Cell culture media for mammalian cells” (University of Pittsburgh, priority 1996, dated 2006)
